The values below come from the supplement of paper PMC12819154, “High-throughput peptide-centric local stability assay extends protein–ligand identification to membrane proteins, tissues and bacteria” (Nature Structural & Molecular Biology, 2025).

Sequences of proteins named here, by UniProt entry; tags and fusion partners are left off. A change or cut given only in a name is not applied to a line headed by its entry.
UniProt Q9UHW9: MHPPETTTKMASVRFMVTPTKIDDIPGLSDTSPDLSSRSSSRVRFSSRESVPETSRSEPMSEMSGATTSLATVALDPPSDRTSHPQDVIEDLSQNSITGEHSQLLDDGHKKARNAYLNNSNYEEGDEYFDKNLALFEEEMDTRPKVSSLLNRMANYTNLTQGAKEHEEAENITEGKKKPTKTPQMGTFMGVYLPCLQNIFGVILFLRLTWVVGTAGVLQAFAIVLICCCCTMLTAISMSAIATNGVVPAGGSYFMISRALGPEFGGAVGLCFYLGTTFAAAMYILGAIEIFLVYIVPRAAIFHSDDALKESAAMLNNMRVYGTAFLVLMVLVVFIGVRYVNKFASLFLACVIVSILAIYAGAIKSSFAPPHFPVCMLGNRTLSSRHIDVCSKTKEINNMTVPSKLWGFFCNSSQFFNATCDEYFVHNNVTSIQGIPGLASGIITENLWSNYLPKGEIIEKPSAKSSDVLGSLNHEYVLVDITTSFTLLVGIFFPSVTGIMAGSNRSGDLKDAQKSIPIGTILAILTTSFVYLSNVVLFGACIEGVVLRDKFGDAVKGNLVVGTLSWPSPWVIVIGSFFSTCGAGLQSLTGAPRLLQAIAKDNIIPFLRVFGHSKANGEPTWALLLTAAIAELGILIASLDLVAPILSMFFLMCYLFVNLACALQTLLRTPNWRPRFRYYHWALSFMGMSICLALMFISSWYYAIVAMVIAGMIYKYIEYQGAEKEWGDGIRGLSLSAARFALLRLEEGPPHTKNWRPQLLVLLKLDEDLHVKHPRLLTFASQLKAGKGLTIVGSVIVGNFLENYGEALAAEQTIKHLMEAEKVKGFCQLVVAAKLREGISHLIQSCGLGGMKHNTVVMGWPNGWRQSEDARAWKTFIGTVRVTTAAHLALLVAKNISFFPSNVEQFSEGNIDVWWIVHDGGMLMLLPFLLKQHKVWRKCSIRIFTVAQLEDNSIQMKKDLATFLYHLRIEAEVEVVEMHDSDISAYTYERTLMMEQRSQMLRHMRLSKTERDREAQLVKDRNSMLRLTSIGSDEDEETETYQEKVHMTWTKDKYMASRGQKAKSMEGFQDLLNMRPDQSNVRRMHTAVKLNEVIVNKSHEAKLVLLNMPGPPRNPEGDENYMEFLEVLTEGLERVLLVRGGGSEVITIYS
UniProt Q9NZ72: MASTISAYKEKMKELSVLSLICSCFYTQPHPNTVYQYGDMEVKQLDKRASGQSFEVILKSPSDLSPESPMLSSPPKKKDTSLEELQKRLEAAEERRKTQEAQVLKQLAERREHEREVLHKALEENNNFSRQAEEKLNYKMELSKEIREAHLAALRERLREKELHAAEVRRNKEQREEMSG
UniProt Q9P2G9: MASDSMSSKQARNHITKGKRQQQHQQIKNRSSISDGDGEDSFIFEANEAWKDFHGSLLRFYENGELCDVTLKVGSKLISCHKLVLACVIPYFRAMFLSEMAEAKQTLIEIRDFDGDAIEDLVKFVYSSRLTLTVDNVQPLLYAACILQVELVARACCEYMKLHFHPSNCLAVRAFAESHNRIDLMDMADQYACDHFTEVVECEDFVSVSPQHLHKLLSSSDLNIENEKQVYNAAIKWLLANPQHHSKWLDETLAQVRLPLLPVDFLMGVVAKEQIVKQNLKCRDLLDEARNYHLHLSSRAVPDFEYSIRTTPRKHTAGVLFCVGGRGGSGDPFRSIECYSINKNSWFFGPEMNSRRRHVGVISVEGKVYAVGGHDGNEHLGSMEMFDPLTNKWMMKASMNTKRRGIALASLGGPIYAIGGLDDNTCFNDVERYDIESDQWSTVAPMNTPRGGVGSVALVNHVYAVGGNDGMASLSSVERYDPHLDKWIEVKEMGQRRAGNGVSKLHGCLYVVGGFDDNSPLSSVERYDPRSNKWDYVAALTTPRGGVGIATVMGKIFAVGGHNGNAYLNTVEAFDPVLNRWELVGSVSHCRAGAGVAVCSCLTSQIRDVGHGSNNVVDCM
UniProt Q9UJ83: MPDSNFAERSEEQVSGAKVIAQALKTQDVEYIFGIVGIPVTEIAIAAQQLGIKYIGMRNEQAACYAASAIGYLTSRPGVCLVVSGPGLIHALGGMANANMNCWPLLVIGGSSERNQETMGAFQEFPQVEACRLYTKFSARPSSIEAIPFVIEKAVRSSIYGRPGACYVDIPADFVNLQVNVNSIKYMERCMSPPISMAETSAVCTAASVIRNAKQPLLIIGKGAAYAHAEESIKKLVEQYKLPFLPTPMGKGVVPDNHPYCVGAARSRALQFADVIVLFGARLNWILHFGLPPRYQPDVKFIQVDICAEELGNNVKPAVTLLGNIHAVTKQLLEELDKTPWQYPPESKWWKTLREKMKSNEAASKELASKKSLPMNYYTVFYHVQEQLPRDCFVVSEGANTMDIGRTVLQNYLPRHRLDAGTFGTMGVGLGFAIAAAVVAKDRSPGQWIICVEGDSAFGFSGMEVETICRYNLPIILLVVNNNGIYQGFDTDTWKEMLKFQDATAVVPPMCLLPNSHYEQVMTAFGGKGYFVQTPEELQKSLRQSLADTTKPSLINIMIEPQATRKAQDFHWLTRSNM
UniProt Q9UHH9: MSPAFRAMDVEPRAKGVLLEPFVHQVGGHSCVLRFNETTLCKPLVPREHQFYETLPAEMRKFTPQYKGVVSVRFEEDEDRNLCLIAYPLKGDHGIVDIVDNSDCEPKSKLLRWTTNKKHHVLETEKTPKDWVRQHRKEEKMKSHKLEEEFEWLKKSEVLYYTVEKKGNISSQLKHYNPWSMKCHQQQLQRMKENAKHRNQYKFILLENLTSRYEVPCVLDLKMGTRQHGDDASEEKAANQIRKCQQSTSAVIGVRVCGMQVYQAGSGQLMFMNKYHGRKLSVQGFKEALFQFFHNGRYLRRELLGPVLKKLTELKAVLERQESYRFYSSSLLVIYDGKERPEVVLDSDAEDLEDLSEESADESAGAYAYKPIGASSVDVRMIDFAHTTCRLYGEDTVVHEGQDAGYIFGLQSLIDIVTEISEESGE
UniProt Q9P2D1: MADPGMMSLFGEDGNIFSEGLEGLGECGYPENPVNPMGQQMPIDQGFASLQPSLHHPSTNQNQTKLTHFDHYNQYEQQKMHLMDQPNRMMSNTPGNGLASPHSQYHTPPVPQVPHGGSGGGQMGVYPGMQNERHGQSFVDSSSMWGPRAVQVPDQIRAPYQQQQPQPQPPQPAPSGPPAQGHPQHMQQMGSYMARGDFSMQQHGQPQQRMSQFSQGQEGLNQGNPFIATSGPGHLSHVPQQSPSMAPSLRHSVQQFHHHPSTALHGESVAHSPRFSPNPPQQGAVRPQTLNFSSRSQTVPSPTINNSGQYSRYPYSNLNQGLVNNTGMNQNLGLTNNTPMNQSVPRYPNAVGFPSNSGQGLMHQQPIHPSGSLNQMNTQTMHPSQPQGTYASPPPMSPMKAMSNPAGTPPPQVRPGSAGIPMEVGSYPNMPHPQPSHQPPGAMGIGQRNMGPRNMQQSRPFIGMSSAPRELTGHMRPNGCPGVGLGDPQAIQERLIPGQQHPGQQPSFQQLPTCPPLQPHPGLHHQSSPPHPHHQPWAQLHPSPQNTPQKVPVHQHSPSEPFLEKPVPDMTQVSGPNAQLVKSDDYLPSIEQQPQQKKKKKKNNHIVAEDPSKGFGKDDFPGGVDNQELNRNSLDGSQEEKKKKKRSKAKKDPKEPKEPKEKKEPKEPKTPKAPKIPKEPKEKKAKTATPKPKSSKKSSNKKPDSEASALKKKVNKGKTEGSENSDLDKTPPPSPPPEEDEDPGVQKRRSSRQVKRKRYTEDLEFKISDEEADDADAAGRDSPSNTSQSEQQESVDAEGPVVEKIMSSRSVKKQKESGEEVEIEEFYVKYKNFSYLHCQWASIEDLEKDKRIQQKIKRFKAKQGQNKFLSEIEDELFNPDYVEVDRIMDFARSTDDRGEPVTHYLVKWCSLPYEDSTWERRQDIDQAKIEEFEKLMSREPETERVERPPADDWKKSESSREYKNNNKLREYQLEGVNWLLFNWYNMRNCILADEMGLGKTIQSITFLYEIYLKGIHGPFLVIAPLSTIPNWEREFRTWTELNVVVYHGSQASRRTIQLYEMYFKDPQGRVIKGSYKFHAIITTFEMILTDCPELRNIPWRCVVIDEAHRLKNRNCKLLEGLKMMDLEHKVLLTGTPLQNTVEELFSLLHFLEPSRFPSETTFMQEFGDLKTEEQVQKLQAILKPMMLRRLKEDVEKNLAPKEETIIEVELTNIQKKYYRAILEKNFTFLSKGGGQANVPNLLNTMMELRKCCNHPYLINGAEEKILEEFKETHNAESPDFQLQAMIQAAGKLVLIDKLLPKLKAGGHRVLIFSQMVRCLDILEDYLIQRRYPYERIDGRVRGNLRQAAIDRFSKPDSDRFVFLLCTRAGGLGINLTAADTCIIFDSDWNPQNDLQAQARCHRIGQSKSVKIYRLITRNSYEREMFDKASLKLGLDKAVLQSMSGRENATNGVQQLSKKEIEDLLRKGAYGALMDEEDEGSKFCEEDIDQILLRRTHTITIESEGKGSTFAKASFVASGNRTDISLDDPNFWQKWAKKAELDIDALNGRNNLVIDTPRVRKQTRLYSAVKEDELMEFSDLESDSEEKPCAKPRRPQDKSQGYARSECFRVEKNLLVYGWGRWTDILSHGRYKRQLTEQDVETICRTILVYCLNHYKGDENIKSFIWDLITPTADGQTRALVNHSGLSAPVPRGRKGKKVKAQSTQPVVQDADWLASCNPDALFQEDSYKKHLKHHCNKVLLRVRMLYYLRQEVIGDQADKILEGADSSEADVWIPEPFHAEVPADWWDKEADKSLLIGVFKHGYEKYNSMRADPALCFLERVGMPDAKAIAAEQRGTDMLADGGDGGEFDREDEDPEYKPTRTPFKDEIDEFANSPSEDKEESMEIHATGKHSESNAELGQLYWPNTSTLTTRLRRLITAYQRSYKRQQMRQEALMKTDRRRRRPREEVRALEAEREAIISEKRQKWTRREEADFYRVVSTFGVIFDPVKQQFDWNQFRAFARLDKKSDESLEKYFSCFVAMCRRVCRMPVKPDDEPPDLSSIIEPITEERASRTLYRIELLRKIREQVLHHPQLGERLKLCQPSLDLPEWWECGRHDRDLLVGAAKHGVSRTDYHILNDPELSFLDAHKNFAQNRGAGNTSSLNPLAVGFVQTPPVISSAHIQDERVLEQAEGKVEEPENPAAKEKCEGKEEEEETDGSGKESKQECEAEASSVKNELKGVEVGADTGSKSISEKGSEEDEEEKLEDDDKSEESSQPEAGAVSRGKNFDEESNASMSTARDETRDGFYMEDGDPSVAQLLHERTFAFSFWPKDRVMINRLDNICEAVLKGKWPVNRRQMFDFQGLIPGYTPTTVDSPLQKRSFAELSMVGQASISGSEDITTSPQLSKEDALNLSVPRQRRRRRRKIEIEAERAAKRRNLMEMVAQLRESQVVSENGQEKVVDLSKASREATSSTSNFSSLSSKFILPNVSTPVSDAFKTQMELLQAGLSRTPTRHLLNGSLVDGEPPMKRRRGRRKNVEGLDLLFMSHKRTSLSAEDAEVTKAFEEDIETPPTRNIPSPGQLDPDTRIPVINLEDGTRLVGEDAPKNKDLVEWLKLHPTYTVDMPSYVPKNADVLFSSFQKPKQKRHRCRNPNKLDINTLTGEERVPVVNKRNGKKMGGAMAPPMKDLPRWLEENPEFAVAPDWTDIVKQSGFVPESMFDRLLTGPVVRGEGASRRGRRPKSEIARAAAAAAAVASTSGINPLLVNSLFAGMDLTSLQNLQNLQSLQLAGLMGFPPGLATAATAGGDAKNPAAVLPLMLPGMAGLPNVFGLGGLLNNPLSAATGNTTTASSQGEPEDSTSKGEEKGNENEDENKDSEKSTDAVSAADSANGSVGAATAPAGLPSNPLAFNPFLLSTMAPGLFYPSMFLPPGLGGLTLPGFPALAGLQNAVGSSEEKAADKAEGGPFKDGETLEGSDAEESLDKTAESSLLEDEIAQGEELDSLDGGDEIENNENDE
UniProt Q9UID6: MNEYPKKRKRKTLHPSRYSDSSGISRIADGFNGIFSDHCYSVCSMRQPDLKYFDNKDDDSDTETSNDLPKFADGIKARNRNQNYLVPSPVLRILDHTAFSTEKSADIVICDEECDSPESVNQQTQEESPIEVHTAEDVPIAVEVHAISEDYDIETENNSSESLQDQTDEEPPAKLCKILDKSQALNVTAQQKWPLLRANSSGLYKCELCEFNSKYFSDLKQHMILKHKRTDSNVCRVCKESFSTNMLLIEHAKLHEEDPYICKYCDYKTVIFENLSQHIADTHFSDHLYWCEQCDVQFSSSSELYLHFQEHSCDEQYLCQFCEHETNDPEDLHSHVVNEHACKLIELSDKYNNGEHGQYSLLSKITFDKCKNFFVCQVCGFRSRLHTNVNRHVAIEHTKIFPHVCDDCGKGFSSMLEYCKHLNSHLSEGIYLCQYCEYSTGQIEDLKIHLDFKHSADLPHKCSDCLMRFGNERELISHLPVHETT

The list shows a part of the results. Most entries show no effect beyond the scatter of the controls.

Compound in this assay: CN[C@@H]1C[C@H]2O[C@@](C)([C@@H]1OC)n1c3ccccc3c3c4c(c5c6ccccc6n2c5c31)C(=O)NC4 [staurosporine]
Put plainly: log2 fold change of tryptic peptide abundance, ligand vs vehicle (limited proteolysis) (log2 ratio); higher = more trypsin-susceptible (destabilized). To be noted: ligand concentration: 20 uM; sample: K562 cleared lysate; digestion: 4 min, 22 C (HT-PELSA RT4min, Orbitrap Astral).
In the case of “SLC12A6 (peptide sequence: VHMTWTK, peptide start residue: 1045) (UniProt Q9UHW9)”, the log2 fold change is -0.566.
As to “STMN3 (peptide sequence: EAHLAALR, peptide start residue: 148) (UniProt Q9NZ72)”, the log2 fold change was -0.304.
The result for “KLHL8 (peptide sequence: AFAESHNR, peptide start residue: 174) (UniProt Q9P2G9)” reads 0.261.
Turning to “HACL1 (peptide sequence: FSARPSSIEAIPFVIEK, peptide start residue: 137) (UniProt Q9UJ83)”, the log2 fold change was -0.145.
The result for “UniProt Q9UHH9 (peptide sequence: CQQSTSAVIGVR, peptide start residue: 244)” reads 0.724; that for “LRWD1 (peptide sequence: VTAHWEK, peptide start residue: 145) (UniProt Q9UFC0)”, 0.371; that for “CHD7 (peptide sequence: NVEGLDLLFMSHK, peptide start residue: 2518) (UniProt Q9P2D1)”, -0.386.
The result for “ZNF639 (peptide sequence: SQALNVTAQQK, peptide start residue: 182) (UniProt Q9UID6)” reads 0.1.
